Laboratory results: article PMC10086755
No constants are given. Whether binding was seen depends on the method and setting. In cells and extracts the contact can be indirect. Some binding calls cover weakened binding; strength is not graded here.

The chains behind the UniProt entries cited, without tags or fusion partners.
UniProt Q9NRC8: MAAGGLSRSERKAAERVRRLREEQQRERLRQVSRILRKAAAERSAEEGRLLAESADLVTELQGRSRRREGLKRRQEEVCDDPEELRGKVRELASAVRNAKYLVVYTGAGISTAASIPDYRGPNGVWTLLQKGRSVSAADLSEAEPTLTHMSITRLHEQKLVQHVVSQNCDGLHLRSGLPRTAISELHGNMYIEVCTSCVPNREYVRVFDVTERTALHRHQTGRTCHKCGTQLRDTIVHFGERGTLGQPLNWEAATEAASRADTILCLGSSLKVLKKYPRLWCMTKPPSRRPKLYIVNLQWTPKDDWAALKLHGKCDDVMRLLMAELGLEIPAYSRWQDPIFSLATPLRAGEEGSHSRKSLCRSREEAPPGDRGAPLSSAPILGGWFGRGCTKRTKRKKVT

Target: SIRT7 (human (endogenous in breast cancer cells)) (UniProt Q9NRC8)
Assay: co-IP; anti-SIRT7 antibody on Protein A/G beads mixed with lysate of breast cancer cells (IP lysis buffer with protease inhibitors), 4 °C for 16 h, four washes with PBS, western blotting

binding: binds
B1: lamina-associated polypeptide 2α (LAP2α) (protein, UniProt P42166 1-694)
chain: MPEFLEDPSVLTKDKLKSELVANNVTLPAGEQRKDVYVQLYLQHLTARNRPPLPAGTNSKGPPDFSSDEEREPTPVLGSGAAAAGRSRAAVGRKATKKTDKPRQEDKDDLDVTELTNEDLLDQLVKYGVNPGPIVGTTRKLYEKKLLKLREQGTESRSSTPLPTISSSAENTRQNGSNDSDRYSDNEEGKKKEHKKVKSTRDIVPFSELGTTPSGGGFFQGISFPEISTRPPLGSTELQAAKKVHTSKGDLPREPLVATNLPGRGQLQKLASERNLFISCKSSHDRCLEKSSSSSSQPEHSAMLVSTAASPSLIKETTTGYYKDIVENICGREKSGIQPLCPERSHISDQSPLSSKRKALEESESSQLISPPLAQAIRDYVNSLLVQGGVGSLPGTSNSMPPLDVENIQKRIDQSKFQETEFLSPPRKVPRLSEKSVEERDSGSFVAFQNIPGSELMSSFAKTVVSHSLTTLGLEVAKQSQHDKIDASELSFPFHESILKVIEEEWQQVDRQLPSLACKYPVSSREATQILSVPKVDDEILGFISEATPLGGIQAASTESCNQQLDLALCRAYEAAASALQIATHTAFVAKAMQADISQAAQILSSDPSRTHQALGILSKTYDAASYICEAAFDEVKMAAHTMGNATVGRRYLWLKDCKINLASKNKLASTPFKGGTLFGGEVCKVIKKRGNKH
